In assay [1] the target is Flag-Sox2-HMG (UniProt P48432). Put plainly: co-IP; 293T cells transiently transfected with both partners; nuclear extracts (NE-PER kit) 1 day later; Flag-Sox2 constructs precipitated on anti-Flag M2-beads; eluates probed by western blot. On the technique in general: Immunoblotting shows a protein as a band on a membrane.
Assay [2] concerns the target Flag-Sox2 (UniProt P48432). The description is as above.
For assay [3], the target named is Flag-Sox2-(1-123) (UniProt P48432). Described as above.
The next assay deals with Flag-Sox2-(1-180) (UniProt P48432). Described as above.
Assay [4] addresses Flag-Sox2 (UniProt P48432). As to the kind of experiment: co-IP; 293T cells transiently transfected with Flag-Sox2 constructs only; endogenous HDAC2; nuclear extracts, anti-Flag M2-beads, western blot.
Assay [5] deals with Flag-Sox2-HMG (UniProt P48432). The assay is described as above.
The target in assay [6] is Flag-Sox2-(1-123) (UniProt P48432). Described as above.

Chains of the proteins cited; added tags and fusions are not shown. Lines headed by an entry give the natural chain unless they say otherwise; changes in a name come on top. A line that says so, or that is headed by a name, gives the form on record, which may keep a tag or linker. Residues count along the entry.
UniProt P48432: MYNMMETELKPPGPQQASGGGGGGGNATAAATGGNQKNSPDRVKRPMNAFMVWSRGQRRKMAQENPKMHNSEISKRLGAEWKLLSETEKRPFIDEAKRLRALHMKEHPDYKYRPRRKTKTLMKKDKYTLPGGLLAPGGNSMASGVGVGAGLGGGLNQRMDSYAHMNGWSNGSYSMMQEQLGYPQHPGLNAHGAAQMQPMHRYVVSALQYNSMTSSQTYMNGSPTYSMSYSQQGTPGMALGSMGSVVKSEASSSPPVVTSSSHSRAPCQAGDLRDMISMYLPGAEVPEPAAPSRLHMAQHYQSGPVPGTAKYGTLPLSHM
Flag-Sox2-(1-180): residues 1-180 of P48432
Flag-Sox2-(1-123): residues 1-123 of P48432
Flag-Sox2-HMG (P48432, form named): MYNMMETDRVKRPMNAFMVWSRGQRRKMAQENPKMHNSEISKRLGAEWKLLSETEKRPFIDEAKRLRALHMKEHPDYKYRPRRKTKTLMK
UniProt O09106: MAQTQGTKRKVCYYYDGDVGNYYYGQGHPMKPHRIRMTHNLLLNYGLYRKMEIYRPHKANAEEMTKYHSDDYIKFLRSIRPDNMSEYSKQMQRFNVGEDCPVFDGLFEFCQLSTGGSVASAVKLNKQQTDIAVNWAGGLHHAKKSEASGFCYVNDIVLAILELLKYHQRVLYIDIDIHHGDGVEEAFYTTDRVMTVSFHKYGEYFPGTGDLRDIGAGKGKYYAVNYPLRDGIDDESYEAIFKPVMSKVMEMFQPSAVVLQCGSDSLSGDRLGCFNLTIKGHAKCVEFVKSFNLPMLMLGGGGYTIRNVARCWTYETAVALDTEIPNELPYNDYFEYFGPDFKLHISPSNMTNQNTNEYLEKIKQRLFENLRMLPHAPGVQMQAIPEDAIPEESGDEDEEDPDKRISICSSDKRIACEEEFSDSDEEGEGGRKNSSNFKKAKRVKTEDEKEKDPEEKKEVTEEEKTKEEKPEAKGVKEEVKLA
UniProt Q8BX22: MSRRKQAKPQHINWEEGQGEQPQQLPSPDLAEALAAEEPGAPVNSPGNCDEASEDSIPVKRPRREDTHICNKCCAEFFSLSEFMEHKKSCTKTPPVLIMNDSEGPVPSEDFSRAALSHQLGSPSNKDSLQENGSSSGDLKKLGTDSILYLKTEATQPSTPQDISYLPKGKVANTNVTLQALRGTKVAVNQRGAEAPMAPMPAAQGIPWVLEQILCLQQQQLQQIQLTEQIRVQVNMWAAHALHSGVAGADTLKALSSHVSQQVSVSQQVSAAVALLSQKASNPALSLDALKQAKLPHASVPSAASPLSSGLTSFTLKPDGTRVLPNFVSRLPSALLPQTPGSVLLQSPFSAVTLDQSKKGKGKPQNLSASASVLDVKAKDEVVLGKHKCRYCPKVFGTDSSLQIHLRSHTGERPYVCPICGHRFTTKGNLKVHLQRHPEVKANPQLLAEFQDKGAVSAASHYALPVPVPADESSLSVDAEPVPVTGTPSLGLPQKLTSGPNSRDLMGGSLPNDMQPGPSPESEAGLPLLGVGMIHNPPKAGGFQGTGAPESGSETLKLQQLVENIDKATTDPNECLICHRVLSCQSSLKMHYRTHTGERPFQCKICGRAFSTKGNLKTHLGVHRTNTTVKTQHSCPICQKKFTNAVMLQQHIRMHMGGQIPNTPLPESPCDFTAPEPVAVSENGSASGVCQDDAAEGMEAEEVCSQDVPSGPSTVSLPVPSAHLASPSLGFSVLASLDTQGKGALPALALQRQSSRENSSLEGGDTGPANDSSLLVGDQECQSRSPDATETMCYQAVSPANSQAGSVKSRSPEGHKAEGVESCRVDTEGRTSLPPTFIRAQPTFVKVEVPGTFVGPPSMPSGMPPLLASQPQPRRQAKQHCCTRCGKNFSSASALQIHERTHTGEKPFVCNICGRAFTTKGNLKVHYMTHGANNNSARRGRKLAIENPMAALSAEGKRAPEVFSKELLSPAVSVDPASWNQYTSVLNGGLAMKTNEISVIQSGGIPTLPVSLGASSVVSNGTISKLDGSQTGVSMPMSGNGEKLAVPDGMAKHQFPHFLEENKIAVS
UniProt Q92769: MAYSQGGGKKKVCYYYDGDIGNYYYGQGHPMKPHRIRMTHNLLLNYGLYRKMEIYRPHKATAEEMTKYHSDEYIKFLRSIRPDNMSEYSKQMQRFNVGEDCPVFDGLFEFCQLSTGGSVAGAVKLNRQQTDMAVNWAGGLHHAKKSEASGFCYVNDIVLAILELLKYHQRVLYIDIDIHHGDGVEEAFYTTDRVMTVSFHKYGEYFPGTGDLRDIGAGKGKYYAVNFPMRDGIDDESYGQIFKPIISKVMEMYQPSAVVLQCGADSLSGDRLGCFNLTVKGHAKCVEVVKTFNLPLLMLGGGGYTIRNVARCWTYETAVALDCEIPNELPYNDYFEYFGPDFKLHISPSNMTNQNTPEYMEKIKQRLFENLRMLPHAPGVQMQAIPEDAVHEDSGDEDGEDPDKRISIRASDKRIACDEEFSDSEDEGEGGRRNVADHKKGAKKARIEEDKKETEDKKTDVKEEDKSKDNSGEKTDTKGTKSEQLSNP

No constants are given. Whether binding was seen depends on the method and setting. Binding seen in cells or lysates may run through a third protein. Some results given as binding are weak or reduced against the parent protein; the word gives no strength.

For the substance GFP-Sox2 (from UniProt P48432 1-319), the binding result with Flag-Sox2-HMG [1] is recorded as “binds”.

In the case of “HDAC1 (from UniProt O09106 1-482) (enzyme)”, the binding entry in the assay with Flag-Sox2 [2], in the assay with Flag-Sox2-HMG [1], with Flag-Sox2-(1-123) [3] and with Flag-Sox2-(1-180) was “binds” throughout.

Sall4 (from UniProt Q8BX22 1-1067): the binding result with Flag-Sox2 [2] and in the assay with Flag-Sox2-(1-123) [3] was “binds” each time.

For “endogenous HDAC2 (from UniProt Q92769 1-488) (enzyme)”, the binding result in the assay with Flag-Sox2 [4], with Flag-Sox2-HMG [5] and with Flag-Sox2-(1-123) [6] was “binds” throughout.
